The record followed here is article PMC6299615.

Chains of the proteins cited; added tags and fusions are not shown.
UniProt P46937: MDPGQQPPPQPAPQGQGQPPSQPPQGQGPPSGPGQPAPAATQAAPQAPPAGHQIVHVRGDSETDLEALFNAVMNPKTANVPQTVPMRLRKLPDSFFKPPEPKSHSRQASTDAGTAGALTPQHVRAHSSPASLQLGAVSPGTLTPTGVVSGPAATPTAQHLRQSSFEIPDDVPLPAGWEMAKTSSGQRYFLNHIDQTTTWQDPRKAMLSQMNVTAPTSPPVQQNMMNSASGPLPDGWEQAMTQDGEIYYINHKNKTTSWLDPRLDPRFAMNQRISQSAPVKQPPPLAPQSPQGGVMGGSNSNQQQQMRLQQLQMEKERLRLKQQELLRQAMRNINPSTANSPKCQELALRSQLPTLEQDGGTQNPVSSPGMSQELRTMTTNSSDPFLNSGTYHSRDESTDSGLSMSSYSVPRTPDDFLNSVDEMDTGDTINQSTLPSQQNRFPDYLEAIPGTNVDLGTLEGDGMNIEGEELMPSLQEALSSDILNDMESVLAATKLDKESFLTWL

Results are given in words; binding and its absence hold for the method and conditions named. In cells and extracts the contact can be indirect. Some results given as binding are weak or reduced against the parent protein; the word gives no strength.

Experiment [1] has as its target T1, p73 (human (endogenous in MCF-7)) (UniProt O15350).
T1 sequence: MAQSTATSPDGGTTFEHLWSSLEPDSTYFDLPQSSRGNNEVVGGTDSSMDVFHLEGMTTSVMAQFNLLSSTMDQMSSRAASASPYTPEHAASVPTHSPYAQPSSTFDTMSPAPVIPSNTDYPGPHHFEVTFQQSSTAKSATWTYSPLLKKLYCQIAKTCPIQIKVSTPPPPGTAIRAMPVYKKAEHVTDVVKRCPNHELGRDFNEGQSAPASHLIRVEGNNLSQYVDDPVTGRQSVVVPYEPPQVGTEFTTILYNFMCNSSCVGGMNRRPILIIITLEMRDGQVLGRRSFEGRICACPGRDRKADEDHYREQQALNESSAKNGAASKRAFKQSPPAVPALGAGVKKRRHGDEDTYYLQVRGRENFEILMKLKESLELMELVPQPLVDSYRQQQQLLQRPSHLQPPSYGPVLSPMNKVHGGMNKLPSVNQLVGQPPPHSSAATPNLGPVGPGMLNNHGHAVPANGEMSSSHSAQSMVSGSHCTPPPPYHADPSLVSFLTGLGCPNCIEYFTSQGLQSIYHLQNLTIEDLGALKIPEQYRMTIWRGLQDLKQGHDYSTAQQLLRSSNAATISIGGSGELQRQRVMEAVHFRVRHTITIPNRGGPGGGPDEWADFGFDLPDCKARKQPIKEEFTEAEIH
The experiment can be described thus: co-IP; endogenous proteins in MCF-7 lysate; precipitated with an anti-p73 antibody, blotted for YAP; cells treated with ABF with or without the JNK inhibitor SP600125.

Experiment [2] concerns the target Yes-associated protein (human (endogenous in MCF-7)) (UniProt P46937). The experiment can be described thus: co-IP; endogenous proteins in MCF-7 lysate; precipitated with an anti-YAP antibody on protein G magnetic beads, overnight at 4 °C, blotted for p73; cells with or without ABF (20 nM).

As for “Yes-associated protein (from UniProt P46937 1-504)”, in experiment [1], the binding entry is on record as “binds”.

B1: p73 (protein, UniProt O15350 1-636)
chain: MAQSTATSPDGGTTFEHLWSSLEPDSTYFDLPQSSRGNNEVVGGTDSSMDVFHLEGMTTSVMAQFNLLSSTMDQMSSRAASASPYTPEHAASVPTHSPYAQPSSTFDTMSPAPVIPSNTDYPGPHHFEVTFQQSSTAKSATWTYSPLLKKLYCQIAKTCPIQIKVSTPPPPGTAIRAMPVYKKAEHVTDVVKRCPNHELGRDFNEGQSAPASHLIRVEGNNLSQYVDDPVTGRQSVVVPYEPPQVGTEFTTILYNFMCNSSCVGGMNRRPILIIITLEMRDGQVLGRRSFEGRICACPGRDRKADEDHYREQQALNESSAKNGAASKRAFKQSPPAVPALGAGVKKRRHGDEDTYYLQVRGRENFEILMKLKESLELMELVPQPLVDSYRQQQQLLQRPSHLQPPSYGPVLSPMNKVHGGMNKLPSVNQLVGQPPPHSSAATPNLGPVGPGMLNNHGHAVPANGEMSSSHSAQSMVSGSHCTPPPPYHADPSLVSFLTGLGCPNCIEYFTSQGLQSIYHLQNLTIEDLGALKIPEQYRMTIWRGLQDLKQGHDYSTAQQLLRSSNAATISIGGSGELQRQRVMEAVHFRVRHTITIPNRGGPGGGPDEWADFGFDLPDCKARKQPIKEEFTEAEIH
B1: in experiment [2], the binding entry was “binds”.
